# Primary screen of a compound library

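Viability assay of Plasmodium falciparum sporozoites; the read-out is not stated. The concentration is filed as 10 mM, unlikely as a test dose, so the dose is not known. Higher reads as lower viability (inferred: compounds with an IC50 in retests scored well above the rest). Strong results were mostly tested again. Of about 34,000 compounds tested this way, about 280 (0.84%) reached 50% or more in at least one test.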

Values are the deposited “Percent Effect”, in %.
The record does not define 0% and 100%; most values in the screen are far below 50% and negative numbers occur (in some assays of this library far below -100).
The compounds are a random part of those screened.
Two or more numbers in one place are separate tests of the same structure; such repeats can differ widely.

compound,percent effect
Cc1nc2ccccc2c(=O)n1Cc1nnnn1C1CC1,-5.07 and -22.39
CC(C)(C)c1nc(CN2CCC(c3ccnn3CCO)CC2)no1,12.02
CC1c2ncc(Cn3cncn3)n2CCN1C(=O)C1CCOCC1 (stereo not given),-7.684
CC(NC(=O)Cc1cccs1)c1nnc2n1CCC2 (stereo not given),8.301
CCC(=O)N1CCCCC1c1nc(O)c2c(n1)CN(S(=O)(=O)CC)CC2 (stereo not given),-5.244
O=C(O)C(F)(F)F.[H][C@]12CCN(C(=O)c3ccno3)[C@@]1([H])CC[C@@H](COCCN1CCCC1)O2,4.4
CNC(=O)C1(c2cnccn2)CCCN1C(=O)c1cccc(C)n1 (stereo not given),7.655
CC(=O)NCCNC(=O)CN1CCCC1c1c(C)nn(C)c1C (stereo not given),1.288
O=C(O)C(F)(F)F.[H][C@@]12C[C@@H](c3nc(C4CC4)cs3)O[C@]1([H])CN(C(=O)C1CCOCC1)C2,-5.145
CC(C(=O)N1CCCC1)n1nc(-c2cccs2)cc(N)c1=O (stereo not given),-7.754
CC(=O)N1CCCN(C(=O)C(C)n2cncn2)CC1 (stereo not given),2.042
[H][C@]12CC[C@@]3(N=C(C)N(CC)C3=O)[C@@]1([H])CN(S(=O)(=O)CC(C)C)C2,23.23
Cl.Cl.Cl.c1cncc(CNc2ccc3nc(C4CCNCC4)nn3c2)c1,4.174
COc1nn(C)cc1C(=O)N1CCC(C)CC1,5.103
COc1ccccc1N1CCN(C(=O)COc2c(C)occc2=O)CC1,-8.447
COCC(=O)N1CCC2(COCc3cnc(N4CCOCC4)nc32)C1 (stereo not given),-2.663
CC(C)c1ncc2c(n1)CN(CCCc1nc3ccccc3o1)CC2,5.11
O=C(O)C(F)(F)F.O=C(O)C(F)(F)F.[H][C@@]12CN(CC3CC3)C[C@]1([H])OCCN2Cc1c(C)noc1C,-11.07
CCCc1n[nH]c(C2CN(C(=O)c3cncnc3C)CCO2)n1 (stereo not given),-2.175
COCCN1CCCC2(CCN(c3ccsc3)C2=O)C1.O=C(O)C(F)(F)F (stereo not given),8.767
O=C(NCCNc1ncccn1)N1CCN(c2nccs2)CC1,-0.7727
Cc1ccc2c(c1)C1(CCNCC1)CC2NC1CC1.Cl.Cl (stereo not given),3.152
Cc1cnn(CC2CCCCN2C(=O)c2ccc(CN(C)C)cc2)c1 (stereo not given),0.4422
COc1c(C2CCCN2C(=O)c2c(C)noc2C)c(C)nn1C (stereo not given),-0.6244
[H][C@@]12OCCC[C@]1([H])N(S(C)(=O)=O)C[C@H]2NC(=O)c1ccno1,-0.08104
O=C(c1cc(=O)n(-c2ccccc2)[nH]1)N1CCCC(c2ccn[nH]2)C1 (stereo not given),11.1
CCN1CCn2c(C)cnc2C12CCN(C(=O)NC)CC2.O=C(O)C(F)(F)F,7.22
CCS(=O)(=O)c1ncc(CN(C)Cc2cccc(OC)c2)n1CCOC,-7.281
Cc1c(C2SCC(=O)Nc3c2c(O)nn3C2CCCCC2)cnn1C (stereo not given),5.177
Cc1ccc(CN2C(=O)CC[C@]23CC[C@@H](NCC2CCOC2)CC3)cc1.O=C(O)C(F)(F)F (stereo not given in full),-0.3422
O=C(c1nsc(Cl)c1Cl)N1CCc2nc3sccc3c(=O)n2CC1,-6.513
CCO[C@@H]1CO[C@@]2(CCN(Cc3ccc4c(c3)OCO4)C2)C1.O=C(O)C(F)(F)F,14.1
Cc1cc(CN(C)C(=O)c2ccc(Cl)cc2N2CCCC2=O)no1,0.09603
CCn1c(C2CCNCC2)nn(CCCc2ccccc2)c1=O,0.3308
Cc1nc(NCC2CC2)nc2c1COCC21CCN(S(=O)(=O)C2CC2)C1 (stereo not given),0.6014
O=C(NCC(=O)N1CCc2ccccc2C1)c1ccoc1,15.47
O=C(NCCC1=CCCCC1)NCc1nnc2n1CCC2,2.526
COCC1CN(C(=O)c2ccnnc2)Cc2c1cnn2C (stereo not given),5.421
Cn1nnc2cc(C(=O)N3CCC(Nc4cccnn4)CC3)ccc21,-0.2602
Cc1nc(-c2nnc[nH]2)sc1C(=O)N1CCCC1c1ccsc1 (stereo not given),7.018
Cc1nn(C)c(Cl)c1C1CCCN1C(=O)c1ccc(O)nc1 (stereo not given),22.03
Cc1cc(CN(C)C2CCCN(Cc3noc(C4CC4)n3)C2)no1 (stereo not given),-12.14
O=C(O)C(F)(F)F.O=C(O)C(F)(F)F.[H][C@@]12C[C@@H](Oc3cncnc3)CN1CCN(C(=O)Cc1ccccn1)C2,9.536
COC1COC2(CCN(Cc3ccccc3Cl)CC2)C1.O=C(O)C(F)(F)F (stereo not given),-17.66 and -26.88 and -0.4386
CC(C)c1cc(C(=O)N2CCC3(CCc4ccccc4C(=O)N3)C2)on1 (stereo not given),-1.489
Cn1cc(CN2CCCC(c3nccnc3-c3cccc(F)c3)C2)cn1 (stereo not given),-2.373
Cn1c(CN2CCOCC2)nnc1C1CCCN(C(=O)CCC2CC2)C1 (stereo not given),7.387
CN(C)c1ccc(C(=O)N2CCCC2c2noc(C3CC3)n2)nn1 (stereo not given),-0.08937
O=C(CCCNC(=O)C1CC1)Nc1cnn(-c2ccccc2Cl)c1,5.597
CC(C)c1ncc2c(n1)CN(CC(=O)Nc1ccncc1)CC2,2.521
Cc1csc(NC(=O)CN2CCc3c(nc(C4CC4)n3C)C2)n1,47.79 and 43.79 and 46.44
CC[C@@H](CO)Nc1nccc(-c2c[nH]c3cc(C(=O)OC)ccc23)n1,13.63
CN(Cc1nc2ccccc2n1C)CC1CCCN1c1cccnn1 (stereo not given),-9.588 and -5.543 and 4.751
[H][C@]12CNCCN1C[C@H](c1ccccc1)[C@H]2C(=O)OCC,-23.43
CN(C)CCNC(=O)c1cc2c(s1)CCN2S(C)(=O)=O,26.98
Cc1noc(C)c1-c1ccc(C2CCCN2C(=O)c2cnn(C)c2)nc1 (stereo not given),8.521
O=C(O)C(F)(F)F.O=C(O)C(F)(F)F.[H][C@@]12C[C@H](C(=O)NCC3CC3)N(C)[C@]1([H])CN(Cc1ccc(C)o1)C2,-2.166
O=C(Cc1ccc2c(c1)OCCO2)NCCc1nnc2n1CCC2,19.04
CCC(NC(=O)C1CCN(C(C)C)CC1)c1cn2cccnc2n1 (stereo not given),-2.456
CS(=O)(=O)N1CCN(C(=O)Cn2ccc3c(Cl)cccc32)CC1,23.6
CCOc1cc(C(=O)N2CCCC(c3noc(C(C)C)n3)C2)ccn1 (stereo not given),-228.6
O=C(c1cn(Cc2ccc(Cl)cc2)nn1)N1CCCO1,5.586
CC(NC(=O)NCCCn1cccn1)c1ccccn1 (stereo not given),-15.2
Cc1n[nH]c(C2CN(C(=O)Cn3ccccc3=O)CCO2)n1 (stereo not given),-13.6
CCN1C(=O)C(c2ccccc2)CC12CCN(Cc1cccnc1)CC2.O=C(O)C(F)(F)F.O=C(O)C(F)(F)F (stereo not given),17.79
COc1nn(C)c2c1CCCN(C(=O)c1cccc3cccnc13)C2.O=C(O)C(F)(F)F,-0.08104
CC1CCCN(Cc2c(C3CCOCC3)[nH]c3ncccc23)C1 (stereo not given),0.5924
CN(C)c1cc(C(=O)N2CCCCC2CNS(C)(=O)=O)ccn1 (stereo not given),-4.592
O=C(O)C(F)(F)F.[H][C@@]12CCN(Cc3c(C)noc3C)C[C@]1(C(=O)NC1CCCC1)CCO2,-24.38
O=C(O)C(F)(F)F.O=C(O)C(F)(F)F.[H][C@]12C[C@H](C(=O)NC)N(C(C)=O)[C@@]1([H])CN(Cc1cccnc1OC)C2,-11.55
Cc1cc(C)n(CCNC(=O)c2cc(C3CC3)n[nH]2)n1,19.41
O=C(c1ccncn1)N1CCC[C@]2(C[C@@H](OCc3ccccn3)CO2)C1,3.694
Cc1nnc(N2CCC(CN(C)C(C)C)CC2)c(C#N)c1C,-8.555
O=C(O)C(F)(F)F.O=C(O)C(F)(F)F.c1ccc(CN2CCc3ncnc(C4CC4)c3CC2)nc1,-5.329 and -14.64 and -3.109
CCCN(Cc1ccccc1)Cn1nc(C)c2c(C)onc2c1=O,5.6
CCOc1ccc(CC(CNC(=O)c2ccoc2)C(N)=O)cc1 (stereo not given),-4.162
Cc1ccc(C(=O)N2CCc3c(CN4CCCC4)nn(C)c3C2)cc1C.O=C(O)C(F)(F)F,-7.302
O=C(CC1CNCCO1)N1CCC(c2cc(N3CCCC3)ncn2)CC1 (stereo not given),-7.544

The last 4 entries again:

compound,percent effect
CCCN(Cc1ccccc1)Cn1nc(C)c2c(C)onc2c1=O,5.6
CCOc1ccc(CC(CNC(=O)c2ccoc2)C(N)=O)cc1 (stereo not given),-4.162
Cc1ccc(C(=O)N2CCc3c(CN4CCCC4)nn(C)c3C2)cc1C.O=C(O)C(F)(F)F,-7.302
O=C(CC1CNCCO1)N1CCC(c2cc(N3CCCC3)ncn2)CC1 (stereo not given),-7.544

Source: ChEMBL document CHEMBL3988442, “University of Dundee, Small-Polar-MMV Screening Library” (2021).